Source: patent US20260098866A1 (REMEGEN, published 2026)
No constants are given. Whether binding was seen depends on the method and setting. Some entries that bind do so weakly or less than the wild type. Blank lines part the entries; values can stand above or below the binder they belong to.

Biological target: T1, telitacicept
T1 construct: TACI-Fc fusion protein drug; also called Tai ai; TACI-Fc fusion protein
T1 chain: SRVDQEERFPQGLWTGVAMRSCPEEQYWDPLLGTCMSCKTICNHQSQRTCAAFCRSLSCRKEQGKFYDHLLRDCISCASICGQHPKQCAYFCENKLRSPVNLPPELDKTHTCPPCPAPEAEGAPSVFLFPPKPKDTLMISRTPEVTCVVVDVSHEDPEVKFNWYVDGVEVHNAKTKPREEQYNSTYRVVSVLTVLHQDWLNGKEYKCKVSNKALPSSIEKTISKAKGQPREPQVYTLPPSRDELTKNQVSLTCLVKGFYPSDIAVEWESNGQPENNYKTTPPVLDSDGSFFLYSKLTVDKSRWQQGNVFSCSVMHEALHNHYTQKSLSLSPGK
Test: BLI (Octet RH16)

binding: binds
B1: antibody 12C9F3 (antibody, mouse IgG1, kappa, V domains shown)
VH: EVQLQQSGPELVKPGASVKISCKTSGYTFTEYAMHWVKQSHGKSLEWIGGINPNHGGTSNNQKFKGKATLTVDKSSSTAYMDFRSLTSEDSAVYYCARWGTDPFFAYWGQGTLVTVSA
VL: DIVMTQSHKFMSTSVGDRVSITCKASQDVSTAVAWYQQKPGQSPKLLIYWASTRHTGVPDRFTGSGSGTDYTLTITSVQAEDLTLYYCHQHYAPPWTFGGGTKLEIKR
notes: Mouse hybridoma antibody, purified from the culture supernatant of cell line 12C9F3-1; The printed chains seem to include a leader peptide, but no cleavage site is stated; also called 12C9F3-1 (hybridoma cell line / culture supernatant)

binding: binds
B2: antibody 1B11D2 (antibody, mouse IgG1, kappa, V domains shown)
VH: EVQLQQSGPELVKPGASVKISCKTSGYTFTEFSMHWVQQSHGKSLEWIGGINPNHGGSSYNQKFKGKATLTVDKSSSTAYMELRSLTSEDSAVYYCARRGDYYGNLYYAMDYWGQGTSVTVSS
VL: SIVMTQTPKFLLVSVGDSITITCKASQSVSNDVVWYQQKPGQSPKLLIYYASNRYTGVPDRFTGSGYGTDFTFTITTVQAEDLAVYFCQQDYSSPWAFGGGTKLEIKR
notes: Mouse hybridoma antibody, purified from the culture supernatant of cell line 1B11D2-1; The printed heavy and light chains start with what looks like a leader peptide (MGWSW..., MKSQT...); also called 1B11D2-1 (hybridoma cell line / culture supernatant); TACI antibody (1B11D2)
